Here are results for five compounds from the supplement of paper PMC11348887.

Holding throughout (conditions): 5 µM; treatment: days 7-14 after plating, readout day 21
The subject of assay [1] is hPSC-derived cortical neurons (WA09). Nature of the assay: nucleus area z-score vs screen plate; higher = larger nuclei (more mature).
Assay [2] shares this test system. Nature of the assay: total neurite length per nucleus (MAP2) z-score; higher = more neurite growth.
The test system is the same in assay [3]. Nature of the assay: nucleus roundness z-score vs screen plate; higher = rounder nuclei (more mature).
For assay [4] the test system is unchanged. The assay is described as follows: KCl-induced FOS+/EGR-1+ double-positive nuclei fraction z-score (KCl minus unstimulated); higher = stronger activity-induced IEG response.

The other results are listed elsewhere or left out. Most values lie at the level of the controls, where differences are scatter.

As for `C=CCc1ccc(O)c(-c2ccc(O)c(CC=C)c2)c1` [Honokiol], the nucleus area z-score in assay [1] was found to be 0.461. Besides, in assay [2], the “total neurite length per nucleus (z-score)” value was determined as 0.189. Further, the nucleus roundness z-score in assay [3] was -0.39. The “KCl-induced FOS+/EGR-1+ double-positive nuclei fraction z-score” value in assay [4] came out at 0.0039.

Turning to `CCOC(=O)c1ncn2c1CN(C)C(=O)c1cc(F)ccc1-2` [Flumazenil], the nucleus area z-score in assay [1] was 0.0905. In addition, in assay [2], the “total neurite length per nucleus (z-score)” value amounted to 0.227. The nucleus roundness z-score in assay [3] is 0.4. Also, in assay [4], the “KCl-induced FOS+/EGR-1+ double-positive nuclei fraction z-score” value came out at 1.09.

With `C=CCc1cc(OC)c(O)c(C(=O)NCCO)c1` [Alibendol], the nucleus area z-score in assay [1] turned out to be 0.54. In addition, in assay [2], the “total neurite length per nucleus (z-score)” value is -0.193. Moreover, in assay [3], the nucleus roundness z-score turned out to be 0.159. In assay [4], the “KCl-induced FOS+/EGR-1+ double-positive nuclei fraction z-score” value stood at 0.176.

`C[C@]12C=CC(=O)N[C@@H]1CC[C@@H]1[C@@H]2CC[C@]2(C)[C@@H](C(=O)Nc3cc(C(F)(F)F)ccc3C(F)(F)F)CC[C@@H]12` [Dutasteride] had a nucleus area z-score in assay [1] of -0.0339. The “total neurite length per nucleus (z-score)” value in assay [2] was determined as 0.679. Further, the nucleus roundness z-score in assay [3] was determined as 0.125. The “KCl-induced FOS+/EGR-1+ double-positive nuclei fraction z-score” value in assay [4] is 0.984.

With `CCC1(C)CC(=O)NC1=O` (stereo not given) [Ethosuximide], the nucleus area z-score in assay [1] turned out to be 0.114. In addition, the “total neurite length per nucleus (z-score)” value in assay [2] came to 0.849. The same compound returned a nucleus roundness z-score in assay [3] of 0.122. In addition, in assay [4], the “KCl-induced FOS+/EGR-1+ double-positive nuclei fraction z-score” value amounted to 0.192.
